In PubChem BioAssay AID743255 (National Center for Advancing Translational Sciences (NCATS), 2014):
Among all 390,000 compounds or so, about 910 (0.23%) were called active. The shares of active, inactive and inconclusive entries below differ from those in the screen. Calls come from the whole dose curve; as a rule, active = well fitted inhibition curve with a large enough effect; inconclusive = small, poorly fitted or top-dose-only effect; inactive = no such curve, though single readings can be large or run the other way. A potency beside an inconclusive call is a rough fit, not a confirmed value.

Amino acid sequences for entries named in this document (tags omitted). A change or cut given only in a name is not applied to a line headed by its entry.
UniProt O94782: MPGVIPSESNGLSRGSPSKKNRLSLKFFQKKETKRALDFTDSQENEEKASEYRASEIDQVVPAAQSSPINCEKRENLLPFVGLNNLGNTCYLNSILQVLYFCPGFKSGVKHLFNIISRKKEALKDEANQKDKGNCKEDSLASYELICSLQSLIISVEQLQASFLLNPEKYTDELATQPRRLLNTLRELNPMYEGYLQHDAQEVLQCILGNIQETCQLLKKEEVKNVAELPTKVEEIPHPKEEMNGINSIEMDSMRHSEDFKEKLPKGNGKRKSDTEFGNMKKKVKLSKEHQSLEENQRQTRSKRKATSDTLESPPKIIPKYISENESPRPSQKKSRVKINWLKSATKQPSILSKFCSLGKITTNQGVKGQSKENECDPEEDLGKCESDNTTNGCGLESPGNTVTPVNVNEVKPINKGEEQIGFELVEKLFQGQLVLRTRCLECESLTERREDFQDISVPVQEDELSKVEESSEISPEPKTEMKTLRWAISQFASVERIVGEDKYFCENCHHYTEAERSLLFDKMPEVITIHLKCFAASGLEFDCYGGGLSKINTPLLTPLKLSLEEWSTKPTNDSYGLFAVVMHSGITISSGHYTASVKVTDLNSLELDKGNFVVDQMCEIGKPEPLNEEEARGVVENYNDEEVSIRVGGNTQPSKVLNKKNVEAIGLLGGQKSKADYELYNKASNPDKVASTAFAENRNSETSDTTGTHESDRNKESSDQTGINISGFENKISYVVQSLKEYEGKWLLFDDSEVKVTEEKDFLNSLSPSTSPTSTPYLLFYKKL

molecular target: Ubiquitin carboxyl-terminal hydrolase 1 (Homo sapiens) (UniProt O94782); test: Inhibitors of USP1/UAF1: Primary Screen; settings: recombinant USP1/UAF1, Ub-Rhodamine cleavage fluorescence; activity change, negative = inhibition: at 57.1 µM (top of the series); note: nearly all actives have a fitted effect of over 60% in size
Outline: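 USP1/UAF1 complex (1 nM) preincubated 15 min at room temperature with compound, then Ub-Rho substrate (150 nM final) added. Kinetic fluorescence at 480/540 nm over 6 reads at 60 s intervals; 50 mM HEPES pH 7.8, 0.5 mM EDTA, 0.1 mg/ml BSA, 1 mM TCEP, 0.01% Tween-20.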
% is set by controls: 0 for no effect and ±100 for the full control effect; potency is the fitted concentration of half-maximal effect.

| Structure (SMILES) | Potency | activity change, negative = inhibition |
| --- | --- | --- |
| CN(Cc1cc(-c2ccccc2)on1)C(=O)c1cc(COc2c(F)cccc2F)on1 | inactive | – |
| Cc1ccccc1OCCn1cc(/C=C(\C#N)C(=O)NCc2ccco2)c2ccccc21 | inactive | – |
| Cn1ccnc1SCC(=O)Nc1cccc(S(=O)(=O)N2CCCCC2)c1 | inconclusive: 50.1 µM [inhibitor, partial curve, poor fit] | – |
| CCOC(=O)N1CCN(CC(O)COc2ccc(-c3ccccc3)cc2)CC1 (stereo unspecified) | inactive | – |
| CC1=CC2=NC(=O)CC(C)(C(=O)N(CC(=O)NC3CCCC3)c3cc(C)cc(C)c3)N2C=C1 (stereo unspecified) | inactive | – |
| COc1ccc(N2CC(C(=O)N3CCOCC3)CC2=O)cc1 (stereo unspecified) | inconclusive: 0.708 µM [inhibitor, full curve, poor fit] | – |
| CN(C)S(=O)(=O)c1ccc(C(=O)OCCn2cnc3c2c(=O)n(C)c(=O)n3C)cc1 | inconclusive: 5.01 µM [inhibitor, single point] | – |
| Cc1ccccc1Nc1nc(NCc2ccco2)c2ccccc2n1 | inactive | – |
| CCOc1ccc2nc3cc(NCc4ccc(OC)cc4)ccc3c(N)c2c1 | inconclusive: 17.8 µM [inhibitor, partial curve] | – |
| CCCCC(CC)CNC(=O)CCCCn1c(=O)[nH]c2ccsc2c1=O (stereo unspecified) | inconclusive: 0.251 µM [inhibitor, full curve, poor fit] | – |
| O=C(COc1ccccc1F)NCCc1ccc2c(c1)OCCO2 | inconclusive: 10 µM [inhibitor, single point] | – |
| CCOc1cc(/C=C2\C(=N)N3N=C(S(C)(=O)=O)SC3=NC2=O)ccc1OCCOc1cccc(OC)c1 | inconclusive: 44.7 µM [inhibitor, partial curve, poor fit] | – |
| CC(C)c1ccc(S(=O)(=O)N2CCN(CC(=O)Nc3ccccc3C(F)(F)F)CC2)cc1 | inconclusive: 5.01 µM [inhibitor, partial curve] | – |
| CCN(CC(=O)Nc1c(F)cccc1F)C(=O)c1cccn1C | inconclusive: 0.282 µM [inhibitor, full curve, poor fit] | – |
| CC[N+](CC)(CC)CC(=O)Nc1ccc(SC(F)F)cc1 | inactive | – |
| Cc1ccc(Cc2c(-c3ccccc3)nc3ccc(Br)cn23)cc1 | inactive | – |
| COc1cc(CN(C(=O)Nc2cccc(Cl)c2)c2ccccn2)cc(OC)c1OC | inconclusive: 7.94 µM [inhibitor, partial curve] | – |
| Cc1ccc(Cn2c(C(C)Nc3nc(-c4ccc(F)cc4)cs3)nc3cc(C(F)(F)F)ccc32)cc1 (stereo unspecified) | inconclusive: 0.251 µM [inhibitor, full curve, poor fit] | – |
| COC(=O)c1c(C)oc2c1cc(NS(=O)(=O)c1ccc(C(=O)O)cc1)c1ccccc12 | inconclusive: 35.5 µM [inhibitor, partial curve] | – |
| CCOC(=O)C1=CN(Cc2ccco2)S(=O)(=O)N(CC)C1c1ccc(C(F)(F)F)cc1 (stereo unspecified) | inconclusive: 56.2 µM [inhibitor, partial curve, poor fit] | – |
| CCN(CC)S(=O)(=O)c1ccc2c(c1)c(=O)c(C(=O)NCCc1ccccc1)cn2C | inconclusive: 11.2 µM [inhibitor, partial curve] | – |

| Structure (SMILES) | Potency | activity change, negative = inhibition |
| --- | --- | --- |
| CC(=O)c1ccc(NC(=O)CSc2nnc(-c3ccco3)c(-c3ccco3)n2)cc1 | – | inconclusive: -30.4% [inhibitor] |
| CC(C)CNC(=O)C1Nc2ccccc2C2C=CCC12 (stereo unspecified) | inconclusive: 28.2 µM [inhibitor, single point] | – |
| Clc1ccc(Nc2cc(-c3ccccc3)nc3ncnn23)cc1 | inconclusive: 12.6 µM [inhibitor, partial curve] | – |
| COc1ccc(NC(=O)N(C)C[C@H]2OCCCC[C@H](C)Oc3ccc(NS(=O)(=O)c4cn(C)cn4)cc3C(=O)N([C@H](C)CO)C[C@@H]2C)cc1 | inconclusive: 0.316 µM [inhibitor, full curve, poor fit] | – |
| Cc1ccccc1NC(=O)CC1NCCNC1=O (stereo unspecified) | inconclusive: 39.8 µM [inhibitor, single point] | – |
| COc1ccc(-n2ncc(C(=O)N3CCN(C4CCCCC4)CC3)c2C2CCN(C(=O)OC(C)(C)C)CC2)cc1 | inconclusive: 0.224 µM [inhibitor, full curve, poor fit] | – |
| COC(=O)c1cccc(NC(=O)CC2C(=O)NCCN2C(=O)Nc2cc(C)cc(C)c2)c1 (stereo unspecified) | inconclusive: 44.7 µM [inhibitor, partial curve] | – |
| CCC(=O)N(CC(=O)Nc1sc(C)c(C)c1C(N)=O)C1CCCC1 | inconclusive: 50.1 µM [inhibitor, partial curve, poor fit] | – |
| CN(c1ccc(C(=O)N2CCc3ccccc3C2)cc1)S(C)(=O)=O | inconclusive: 31.6 µM [inhibitor, partial curve] | – |
| COc1cccc(NC(=O)c2sc3nc(C)c(C(=O)Nc4ccc(C)cc4C)c(-c4ccco4)c3c2N)c1 | active: 35.5 µM | – |
| CCOc1ccccc1NC(=O)c1cc2cc3cc(C)ccc3nc2s1 | inconclusive: 50.1 µM [inhibitor, partial curve, poor fit] | – |
| CCCNC(=O)CSc1c2c(nc3ccc(Cl)cc13)CCCC2 | inconclusive: 4.47 µM [inhibitor, single point] | – |
| COc1cc(C(=O)Nc2ccc(Cl)c(C(F)(F)F)c2)cc(OC)c1OC | inactive | – |
| OC(CNCC1CCCO1)Cn1c2ccc(Cl)cc2c2cc(Cl)ccc21 (stereo unspecified) | inactive | – |
| CCC(C)Nc1ccc(NC(C)CC)cc1 (stereo unspecified) | inconclusive: 39.8 µM [inhibitor, partial curve] | – |
| Cc1nn(-c2ccccc2)c2sc(C(=O)Nc3cccc(Cl)c3)cc12 | inconclusive: 0.794 µM [inhibitor, full curve, poor fit] | – |
| Nc1nc2nc(-c3ccccc3)cc(C(F)(F)F)c2s1 | inconclusive: 35.5 µM [inhibitor, partial curve] | – |
| OC(COC(c1ccccc1)c1ccccc1)CN1CCOCC1 (stereo unspecified) | inactive | – |
| CCOC(=O)[C@H]1[C@H]2COc3ccc(C)cc3[C@@H]2N2C(=O)c3cc(F)ccc3NC(=O)[C@@]12C | inactive | – |
| COC(=O)c1ccc(Nc2nc(-c3ccccc3Cl)nc3ccccc23)cc1 | inactive | – |
